One compound from patent US20160046597A1, “RORC2 INHIBITORS AND METHODS OF USE THEREOF” (PFIZER INC., priority 2013, published 2016) can be followed below.

By UniProt entry, the sequences of proteins in these tests, tags left out. Residues count along the entry.
UniProt P51449, 269-508 limits assumed: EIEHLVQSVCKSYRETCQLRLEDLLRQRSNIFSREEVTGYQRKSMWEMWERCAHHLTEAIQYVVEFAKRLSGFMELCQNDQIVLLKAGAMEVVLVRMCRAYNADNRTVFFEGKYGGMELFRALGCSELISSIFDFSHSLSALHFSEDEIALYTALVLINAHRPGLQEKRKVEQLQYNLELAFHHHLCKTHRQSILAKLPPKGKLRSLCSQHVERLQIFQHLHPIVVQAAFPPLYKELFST

Molecules are shown by their SMILES. The match of structure and compound is tentative.

In this experiment the target is RORC2 ligand binding domain (6-His-RORC2 LBD) (Homo sapiens, UniProt P51449). The experiment is described as follows: Co-activator recruitment by TR-FRET (RORC2 FRET). The format is biochemical. The conditions noted are these: read-out: RORC2 FRET IC50, 6.3 nM RORC2 LBD, 200 nM SRC1-2 coactivator peptide, 3 hours room temperature. On the technique in general: In TR-FRET formats the signal depends on donor and acceptor labels being close together.

The IC50 is the concentration that inhibits the measured activity by half. In the case of `N#Cc1cccc(CCC(=O)Nc2ccc3[nH]cc(C4CCN(C(=O)C5CCCC5)CC4)c3c2)c1`, the IC50 came to 3.41 µM.
